The results in this text go back to the supplement of paper PMC3682954.

Where a name gives a salt, the structure may show the parent alone. ± gives the standard deviation of the averaged measurements. The list shows a part of the results. Repeats are few or missing, and single values can be far off.

In the test the test system is RAW 264.7. Nature of the test: HMGB1-induced TNF-alpha production relative to HMGB1-stimulated control; higher = more TNF-alpha secretion (less inhibition). As to conditions: stimulus: HMGB1 5 ug/ml, 18 h.
[1] abbreviates: compound concentration: 1 ug/ml.

With `Cc1cc(C(C)(C)CC(C)(C)C)ccc1OCCOCC[N+](C)(C)Cc1ccccc1` [Methyl benzethonium chloride], for the setting “compound concentration: 3 uM”, the “HMGB1-induced TNF-alpha production” value was 93.1%.

For the compound `Cc1cc(C(C)(C)CC(C)(C)C)ccc1OCCOCC[N+](C)(C)Cc1ccccc1`, the “HMGB1-induced TNF-alpha production” value (compound concentration: 3 uM) was found to be 77.5%.

In the case of `O=C1NC(=O)/C(=C\c2ccc3nccnc3c2)S1`, the “HMGB1-induced TNF-alpha production” value (compound concentration: 3 uM) was 80.3%.

As for `Cc1cc(NC(=O)C2=C(O)c3ccccc3S(=O)(=O)N2C)no1` [Isoxicam], the “HMGB1-induced TNF-alpha production” value (compound concentration: 3 uM) amounted to 64.3%.

For the compound `Cc1cc(NC(=O)C2=C(O)c3ccccc3S(=O)(=O)N2C)no1`, under “compound concentration: 3 uM”, the “HMGB1-induced TNF-alpha production” value stood at 90.3%.

Take `Cc1cc(C)cc(OCC(=O)N/N=C/c2c(O)c(O)c(C(C)C)c3cc(C)c(-c4c(C)cc5c(C(C)C)c(O)c(O)c(/C=N/NC(=O)COc6cc(C)cc(C)c6)c5c4O)c(O)c23)c1`: the “HMGB1-induced TNF-alpha production” value under setting [1] was 92.7%.

Regarding `CN(C)CCCN1c2ccccc2CCc2ccc(Cl)cc21` [Clomipramine hydrochloride], the “HMGB1-induced TNF-alpha production” value (compound concentration: 3 uM) amounted to 62.9 ± 7.3%.

As to `CN(C)CCCN1c2ccccc2CCc2ccc(Cl)cc21`, for the setting “compound concentration: 3 uM”, the “HMGB1-induced TNF-alpha production” value amounted to 84.6%.

`CO[C@@]1(NC(=O)C2SC(=C(C(N)=O)C(=O)O)S2)C(=O)N2C(C(=O)O)=C(CSc3nnnn3C)CS[C@@H]21` (stereo partly drawn) [Cefotetan]: for the setting “compound concentration: 3 uM”, the “HMGB1-induced TNF-alpha production” value turned out to be 89.3%.

Take `C#C[C@]1(OC(C)=O)CC[C@H]2[C@@H]3CCC4=C[C@@H](OC(C)=O)CC[C@@H]4[C@H]3CC[C@@]21C`: the “HMGB1-induced TNF-alpha production” value (compound concentration: 3 uM) was found to be 84.5%.

With `C#C[C@]1(OC(C)=O)CC[C@H]2[C@@H]3CCC4=C[C@@H](OC(C)=O)CC[C@@H]4[C@H]3CC[C@@]21C` [Ethynodiol diacetate], for the setting “compound concentration: 3 uM”, the “HMGB1-induced TNF-alpha production” value is 112%.

In the case of `O=C(Nc1ccn([C@@H]2O[C@H](CO)[C@@H](O)[C@H]2O)c(=O)n1)c1ccccc1` [N4-Benzoylcytidine], the “HMGB1-induced TNF-alpha production” value under setting [1] is 81.3%.

As to `O=C(O[C@H]1[C@H](Oc2ccccc2COC(=O)C2(O)C=CCCC2=O)O[C@H](CO)[C@@H](O)[C@@H]1O)c1ccccc1` (stereo partly drawn), the “HMGB1-induced TNF-alpha production” value (compound concentration: 3 uM) was 107%.

On to `Nc1ccc(S(=O)(=O)Nc2ncccn2)cc1`, for which, for the setting “compound concentration: 3 uM”, the “HMGB1-induced TNF-alpha production” value was 95.5%.

On to `Nc1ccc(S(=O)(=O)Nc2ncccn2)cc1` [Sulfadiazine], for which, under “compound concentration: 3 uM”, the “HMGB1-induced TNF-alpha production” value was 85.9 ± 21%.

For `COc1ccc(-c2coc3ccc(OC4OC(COC(C)=O)C(OC(C)=O)C(OC(C)=O)C4OC(C)=O)cc3c2=O)cc1` (stereo not drawn), the “HMGB1-induced TNF-alpha production” value under setting [1] worked out at 82.4%.

As to `CO[C@@]1(NC(=O)C(C(=O)O)c2ccc(O)cc2)C(=O)N2C(C(=O)O)=C(CSc3nnnn3C)CO[C@@H]21` (stereo partly drawn) [Moxalactam disodium salt], for the setting “compound concentration: 3 uM”, the “HMGB1-induced TNF-alpha production” value amounted to 123%.

As for `CO[C@@]1(NC(=O)C(C(=O)O)c2ccc(O)cc2)C(=O)N2C(C(=O)O)=C(CSc3nnnn3C)CO[C@@H]21` (stereo partly drawn), under “compound concentration: 3 uM”, the “HMGB1-induced TNF-alpha production” value was determined as 89.6%.

For the compound `C#C[C@]1(O)CC[C@H]2[C@@H]3CCC4=CC(=O)CC[C@@H]4[C@H]3CC[C@@]21C` [Norethindrone], the “HMGB1-induced TNF-alpha production” value (compound concentration: 3 uM) was 78.4 ± 6.3%.

On to `C#C[C@]1(O)CC[C@H]2[C@@H]3CCC4=CC(=O)CC[C@@H]4[C@H]3CC[C@@]21C`, for which the “HMGB1-induced TNF-alpha production” value (compound concentration: 3 uM) amounted to 73.6%.

Turning to `O=C(O)CNC(=O)c1ccccc1` [Hippuric acid], the “HMGB1-induced TNF-alpha production” value under setting [1] was 74.5%.

As to `COc1cc2c(CCNC(C)=O)c[nH]c2cc1O` [6-Hydroxymelatonin], the “HMGB1-induced TNF-alpha production” value (compound concentration: 3 uM) amounted to 90.5%.

Regarding `CNc1ncnc2c1ncn2[C@H]1C[C@H](OP(=O)(O)O)[C@@H](COP(=O)(O)O)O1`, under “compound concentration: 3 uM”, the “HMGB1-induced TNF-alpha production” value worked out at 109%.

For the compound `COc1ccc(CN(CCN(C)C)c2ccccn2)cc1`, for the setting “compound concentration: 3 uM”, the “HMGB1-induced TNF-alpha production” value amounted to 77.3%.

Turning to `COc1ccc(CN(CCN(C)C)c2ccccn2)cc1` [Mepyramine], where the note is “compound concentration: 3 uM”, the “HMGB1-induced TNF-alpha production” value stood at 92.5%.

Take `COc1ccc(CN(CCN(C)C)c2ccccn2)cc1` [Pyrilamine maleate]: the “HMGB1-induced TNF-alpha production” value (compound concentration: 3 uM) was 78.1 ± 38%.

`CCCNC(C)C(=O)Nc1ccccc1C` (stereo not drawn) [Prilocaine hydrochloride]: the “HMGB1-induced TNF-alpha production” value (compound concentration: 3 uM) worked out at 89.2 ± 21%.

Regarding `CCCNC(C)C(=O)Nc1ccccc1C` (stereo not drawn), the “HMGB1-induced TNF-alpha production” value (compound concentration: 3 uM) was determined as 81.8%.

On to `Nc1ncn([C@@H]2O[C@H](CO)[C@@H](O)[C@H]2O)c(=O)n1`, for which the “HMGB1-induced TNF-alpha production” value (compound concentration: 3 uM) was 249 ± 11%.

For `Nc1ncn([C@@H]2O[C@H](CO)[C@@H](O)[C@H]2O)c(=O)n1` [5-azacytidine], for the setting “compound concentration: 3 uM”, the “HMGB1-induced TNF-alpha production” value amounted to 155%.

For the compound `CC(COc1ccccc1)N(CCCl)Cc1ccccc1` (stereo not drawn) [Phenoxybenzamine hydrochloride], the “HMGB1-induced TNF-alpha production” value (compound concentration: 3 uM) came out at 91.6 ± 2.1%.

With `CC(COc1ccccc1)N(CCCl)Cc1ccccc1` (stereo not drawn) [Phenoxybenzamine HCl], for the setting “compound concentration: 3 uM”, the “HMGB1-induced TNF-alpha production” value turned out to be 84.8%.

`CC(COc1ccccc1)N(CCCl)Cc1ccccc1` (stereo not drawn): the “HMGB1-induced TNF-alpha production” value (compound concentration: 3 uM) was determined as 84.4%.

In the case of `CC(=O)c1ccc(S(=O)(=O)NC(=O)NC2CCCCC2)cc1` [Acetohexamide], under “compound concentration: 3 uM”, the “HMGB1-induced TNF-alpha production” value turned out to be 77.1 ± 4.4%.

On to `CC(=O)c1ccc(S(=O)(=O)NC(=O)NC2CCCCC2)cc1`, for which, where the note is “compound concentration: 3 uM”, the “HMGB1-induced TNF-alpha production” value was 93%.

With `CCCCC[C@H](O)/C=C/[C@@H]1[C@@H](C/C=C\CCCC(=O)O)[C@@H](O)C[C@H]1O` [Dinoprost], the “HMGB1-induced TNF-alpha production” value (compound concentration: 3 uM) came out at 104%.

`CCCCC[C@H](O)/C=C/[C@@H]1[C@@H](C/C=C\CCCC(=O)O)[C@@H](O)C[C@H]1O` [Dinoprost trometamol]: the “HMGB1-induced TNF-alpha production” value (compound concentration: 3 uM) turned out to be 79.1%.

As for `CCSC(=N)N` [S-Ethylisothiourea hydrobromide], the “HMGB1-induced TNF-alpha production” value (compound concentration: 3 uM) was found to be 70.3%.
